For seven molecules, binding results are on record in PMC5566498, “SIRT7 antagonizes TGF-β signaling and inhibits breast cancer metastasis” (Nature Communications, 2017).

The chains behind the UniProt entries cited, without tags or fusion partners. Where a name states a change or a piece, a line headed by the entry shows the natural chain unless it says otherwise.
UniProt Q13485: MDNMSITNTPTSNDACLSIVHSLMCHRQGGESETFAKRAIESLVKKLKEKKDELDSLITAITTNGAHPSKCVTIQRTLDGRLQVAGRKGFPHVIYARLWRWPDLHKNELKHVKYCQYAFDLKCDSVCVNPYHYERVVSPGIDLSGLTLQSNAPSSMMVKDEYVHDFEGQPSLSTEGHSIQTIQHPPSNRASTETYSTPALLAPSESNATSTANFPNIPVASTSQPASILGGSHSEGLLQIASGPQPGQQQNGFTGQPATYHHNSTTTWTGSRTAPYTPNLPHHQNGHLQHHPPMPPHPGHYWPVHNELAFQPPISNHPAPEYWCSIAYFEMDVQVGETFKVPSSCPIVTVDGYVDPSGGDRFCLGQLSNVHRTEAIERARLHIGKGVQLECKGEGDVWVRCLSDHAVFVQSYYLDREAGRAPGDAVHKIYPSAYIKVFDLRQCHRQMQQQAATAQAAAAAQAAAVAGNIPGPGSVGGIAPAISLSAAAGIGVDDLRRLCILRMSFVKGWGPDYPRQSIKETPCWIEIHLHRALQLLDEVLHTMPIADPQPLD
UniProt Q15797: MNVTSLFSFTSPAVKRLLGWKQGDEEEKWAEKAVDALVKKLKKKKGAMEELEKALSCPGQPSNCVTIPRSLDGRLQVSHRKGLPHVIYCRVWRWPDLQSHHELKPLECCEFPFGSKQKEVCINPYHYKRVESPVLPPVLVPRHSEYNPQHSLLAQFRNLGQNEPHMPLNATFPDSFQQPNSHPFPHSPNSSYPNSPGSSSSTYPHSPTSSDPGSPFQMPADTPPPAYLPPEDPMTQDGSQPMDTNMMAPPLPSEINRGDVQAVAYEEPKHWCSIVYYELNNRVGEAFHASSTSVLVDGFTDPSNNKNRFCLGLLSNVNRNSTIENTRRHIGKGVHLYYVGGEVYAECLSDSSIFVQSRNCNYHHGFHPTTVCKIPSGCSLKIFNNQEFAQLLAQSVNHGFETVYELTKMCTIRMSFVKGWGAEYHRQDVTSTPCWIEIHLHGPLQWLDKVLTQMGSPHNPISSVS
UniProt Q15796: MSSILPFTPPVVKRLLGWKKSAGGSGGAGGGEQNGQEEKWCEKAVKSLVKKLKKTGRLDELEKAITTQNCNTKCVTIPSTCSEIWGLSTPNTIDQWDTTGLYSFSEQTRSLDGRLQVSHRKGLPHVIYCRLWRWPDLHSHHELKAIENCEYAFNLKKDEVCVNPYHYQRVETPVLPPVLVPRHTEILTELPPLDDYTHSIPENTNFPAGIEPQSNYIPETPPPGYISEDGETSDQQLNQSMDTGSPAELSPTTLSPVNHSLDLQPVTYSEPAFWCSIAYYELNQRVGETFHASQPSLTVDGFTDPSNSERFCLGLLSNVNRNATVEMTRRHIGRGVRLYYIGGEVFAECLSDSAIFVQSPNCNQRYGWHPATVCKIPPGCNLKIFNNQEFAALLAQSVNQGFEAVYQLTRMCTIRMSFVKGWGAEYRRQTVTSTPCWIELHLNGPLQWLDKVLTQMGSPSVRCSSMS
UniProt Q9Y297: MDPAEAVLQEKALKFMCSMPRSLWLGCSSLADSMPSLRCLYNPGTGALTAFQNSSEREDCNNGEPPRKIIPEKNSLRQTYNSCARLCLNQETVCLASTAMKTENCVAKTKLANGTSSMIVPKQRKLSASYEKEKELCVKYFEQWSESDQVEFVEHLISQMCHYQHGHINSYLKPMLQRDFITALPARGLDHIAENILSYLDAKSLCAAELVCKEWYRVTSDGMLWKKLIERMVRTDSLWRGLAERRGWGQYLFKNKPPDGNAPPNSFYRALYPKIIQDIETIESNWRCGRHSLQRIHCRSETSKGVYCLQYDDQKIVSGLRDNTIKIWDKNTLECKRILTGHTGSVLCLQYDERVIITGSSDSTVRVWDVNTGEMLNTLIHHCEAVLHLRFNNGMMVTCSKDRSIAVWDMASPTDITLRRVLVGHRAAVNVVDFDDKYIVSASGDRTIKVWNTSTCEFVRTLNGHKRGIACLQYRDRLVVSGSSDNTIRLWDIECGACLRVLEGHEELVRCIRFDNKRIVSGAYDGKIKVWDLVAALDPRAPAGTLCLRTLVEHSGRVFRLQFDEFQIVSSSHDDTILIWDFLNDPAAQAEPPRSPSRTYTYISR

These are yes or no findings as the source states them, for the method shown. Binding seen in cells or lysates may run through a third protein. Some binding calls cover weakened binding; strength is not graded here. For part of these data: Where a sequence is shown, tags or fusion partners need not be part of it.

Test [1] addresses SIRT7 (as used in Supplementary Figs 7d, 7e and 10g) (UniProt Q9NRC8). The experiment in a line: pull-down; Supplementary Fig. 7e: SIRT7, ΔN, ΔC and catalytic domain with SMAD4; the text says only 'pull down'.
For test [2], the target named is endogenous SMAD4 (human (endogenous in BT549)) (UniProt Q13485). The experiment in a line: co-IP; endogenous proteins in BT549 cells; anti-SIRT7 or anti-SMAD4 antibodies; lysis in 200 mM KCl, 20 mM Tris-HCl pH 7.9, 5 mM MgCl2, 10% glycerol, 0.2 mM EDTA, 0.1% NP-40.
For test [3], the target named is HA-SMAD1 (UniProt Q15797). Briefly: co-IP; HEK293 cells expressing ectopic FLAG-SIRT7 and HA-SMADs; anti-HA or anti-FLAG immunoprecipitation, immunoblot; lysis in 200 mM KCl, 20 mM Tris-HCl pH 7.9, 5 mM MgCl2, 10% glycerol, 0.2 mM EDTA, 0.1% NP-40; 4 °C overnight.
The target of test [4] is HA-SMAD2 (UniProt Q15796). The test is described as above.
The target of test [5] is HA-SMAD4 (UniProt Q13485). The description is as above.
For test [6], the target named is Flag-β-TrCP1 (UniProt Q9Y297). The experiment in a line: co-IP; immunoprecipitation of Flag-β-TrCP1 and HA-SMAD4 mutants from transfected cells; immunoblot. For orientation: A western blot detects proteins with antibodies after separation by electrophoresis.
The target in test [7] is FLAG-SIRT7 (UniProt Q9NRC8). The experiment in a line: co-IP; HEK293 cells expressing ectopic FLAG-SIRT7 and HA-SMADs; anti-HA or anti-FLAG immunoprecipitation, immunoblot; lysis in 200 mM KCl, 20 mM Tris-HCl pH 7.9, 5 mM MgCl2, 10% glycerol, 0.2 mM EDTA, 0.1% NP-40; 4 °C overnight.
In test [8] the target is endogenous SIRT7 (human (endogenous in BT549)) (UniProt Q9NRC8). The experiment in a line: co-IP; endogenous proteins in BT549 cells; anti-SIRT7 or anti-SMAD4 antibodies; lysis in 200 mM KCl, 20 mM Tris-HCl pH 7.9, 5 mM MgCl2, 10% glycerol, 0.2 mM EDTA, 0.1% NP-40.
For test [9], the target named is HA-SMAD3, P84022. Briefly: co-IP; HEK293 cells expressing ectopic FLAG-SIRT7 and HA-SMADs; anti-HA or anti-FLAG immunoprecipitation, immunoblot; lysis in 200 mM KCl, 20 mM Tris-HCl pH 7.9, 5 mM MgCl2, 10% glycerol, 0.2 mM EDTA, 0.1% NP-40; 4 °C overnight. To be noted: remark: other sources report otherwise.

Turning to “full-length SMAD4 (as used in Supplementary Figs 7d, 7e, 7f, 8a and 10g) (from UniProt Q13485 1-552)”, the binding result in test [1] was “binds”.

For the molecule “endogenous SIRT7 (from UniProt Q9NRC8 1-400) (enzyme)”, the binding result in test [2] was “binds”.

In the case of “FLAG-SIRT7 (from UniProt Q9NRC8 1-400) (enzyme)”, the binding entry is on record as “no binding” in [3], “no binding” in test [4] and “binds” in [5].

As for “HA-SMAD4 K428R (from UniProt Q13485 1-552)”, the binding entry in test [6] is “binds”.

For the molecule HA-SMAD4 (from UniProt Q13485 1-552), the binding result in test [7] was “binds”.

Turning to “endogenous SMAD4 (from UniProt Q13485 1-552)”, the binding result in test [8] is given as “binds”.

B1: GST-SIRT7 (enzyme, UniProt Q9NRC8 1-400, looked up)
chain: MAAGGLSRSERKAAERVRRLREEQQRERLRQVSRILRKAAAERSAEEGRLLAESADLVTELQGRSRRREGLKRRQEEVCDDPEELRGKVRELASAVRNAKYLVVYTGAGISTAASIPDYRGPNGVWTLLQKGRSVSAADLSEAEPTLTHMSITRLHEQKLVQHVVSQNCDGLHLRSGLPRTAISELHGNMYIEVCTSCVPNREYVRVFDVTERTALHRHQTGRTCHKCGTQLRDTIVHFGERGTLGQPLNWEAATEAASRADTILCLGSSLKVLKKYPRLWCMTKPPSRRPKLYIVNLQWTPKDDWAALKLHGKCDDVMRLLMAELGLEIPAYSRWQDPIFSLATPLRAGEEGSHSRKSLCRSREEAPPGDRGAPLSSAPILGGWFGRGCTKRTKRKKVT
notes: SIRT7; also called purified GST-SIRT7; recombinant GST-SIRT7; source: recombinant, purified
As to B1, in test [9], the binding entry is recorded as “no binding”.
